Measurements as given in paper PMC11623952.
These are yes or no findings as the source states them, for the method shown. In cells and extracts the contact can be indirect. A yes stands for co-enrichment or nearness to the bait. Other partners may have been found.

Chains of the proteins cited; added tags and fusions are not shown. Residues count along the entry.
UniProt P29279, residues 27-349: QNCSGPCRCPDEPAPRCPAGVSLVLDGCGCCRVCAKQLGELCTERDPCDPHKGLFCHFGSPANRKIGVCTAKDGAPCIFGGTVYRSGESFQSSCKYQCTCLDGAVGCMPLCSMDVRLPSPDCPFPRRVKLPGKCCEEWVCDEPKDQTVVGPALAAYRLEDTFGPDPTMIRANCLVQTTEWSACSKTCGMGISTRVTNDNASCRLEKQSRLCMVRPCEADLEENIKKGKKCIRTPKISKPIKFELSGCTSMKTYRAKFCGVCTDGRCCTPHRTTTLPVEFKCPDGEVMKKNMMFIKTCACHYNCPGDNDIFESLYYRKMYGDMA
UniProt Q9Y6C2, residues 22-1016: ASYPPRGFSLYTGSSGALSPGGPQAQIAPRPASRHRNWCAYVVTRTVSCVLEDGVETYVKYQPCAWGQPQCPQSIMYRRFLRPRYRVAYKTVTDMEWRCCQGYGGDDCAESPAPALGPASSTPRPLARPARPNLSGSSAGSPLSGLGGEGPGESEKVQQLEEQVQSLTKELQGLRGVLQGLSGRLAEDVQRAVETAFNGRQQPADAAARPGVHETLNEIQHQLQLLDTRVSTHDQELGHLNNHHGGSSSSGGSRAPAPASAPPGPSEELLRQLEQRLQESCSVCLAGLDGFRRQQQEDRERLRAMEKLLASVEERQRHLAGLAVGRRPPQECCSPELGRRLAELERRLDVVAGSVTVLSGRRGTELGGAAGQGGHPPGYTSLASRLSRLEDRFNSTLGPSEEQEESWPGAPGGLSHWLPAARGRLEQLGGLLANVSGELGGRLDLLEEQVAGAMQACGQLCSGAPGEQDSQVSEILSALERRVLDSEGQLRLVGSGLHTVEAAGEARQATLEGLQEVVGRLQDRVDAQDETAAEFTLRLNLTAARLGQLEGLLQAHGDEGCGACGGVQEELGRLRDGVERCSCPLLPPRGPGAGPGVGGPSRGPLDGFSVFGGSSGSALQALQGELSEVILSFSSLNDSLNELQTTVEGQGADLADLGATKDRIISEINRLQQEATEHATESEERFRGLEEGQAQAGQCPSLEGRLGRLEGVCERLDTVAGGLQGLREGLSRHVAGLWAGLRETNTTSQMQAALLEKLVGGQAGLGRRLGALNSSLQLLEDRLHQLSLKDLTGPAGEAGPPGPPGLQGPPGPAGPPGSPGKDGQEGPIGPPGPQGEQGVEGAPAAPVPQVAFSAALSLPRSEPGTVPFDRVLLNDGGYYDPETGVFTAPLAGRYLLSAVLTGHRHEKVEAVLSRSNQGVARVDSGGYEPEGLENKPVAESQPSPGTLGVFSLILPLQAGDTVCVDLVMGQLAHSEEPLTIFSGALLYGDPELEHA
UniProt Q9UHB6: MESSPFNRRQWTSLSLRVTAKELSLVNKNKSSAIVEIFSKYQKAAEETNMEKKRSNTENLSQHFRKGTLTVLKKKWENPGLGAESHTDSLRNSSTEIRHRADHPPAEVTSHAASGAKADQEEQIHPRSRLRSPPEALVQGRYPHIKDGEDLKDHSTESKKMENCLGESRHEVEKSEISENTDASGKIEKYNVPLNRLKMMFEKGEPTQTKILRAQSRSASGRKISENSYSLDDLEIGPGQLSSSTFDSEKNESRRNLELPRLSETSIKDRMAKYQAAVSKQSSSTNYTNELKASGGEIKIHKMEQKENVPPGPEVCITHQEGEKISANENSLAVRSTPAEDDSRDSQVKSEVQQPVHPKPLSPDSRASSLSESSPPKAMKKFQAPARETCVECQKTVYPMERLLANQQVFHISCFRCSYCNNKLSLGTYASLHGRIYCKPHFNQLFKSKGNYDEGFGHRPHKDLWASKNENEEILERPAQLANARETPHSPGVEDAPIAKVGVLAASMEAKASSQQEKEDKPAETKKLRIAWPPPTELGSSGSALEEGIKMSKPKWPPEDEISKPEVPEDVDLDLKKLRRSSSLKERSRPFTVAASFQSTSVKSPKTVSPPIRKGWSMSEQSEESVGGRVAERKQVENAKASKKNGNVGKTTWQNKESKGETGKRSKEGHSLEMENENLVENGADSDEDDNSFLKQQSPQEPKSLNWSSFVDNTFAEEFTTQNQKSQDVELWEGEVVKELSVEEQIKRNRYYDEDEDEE
UniProt Q14008: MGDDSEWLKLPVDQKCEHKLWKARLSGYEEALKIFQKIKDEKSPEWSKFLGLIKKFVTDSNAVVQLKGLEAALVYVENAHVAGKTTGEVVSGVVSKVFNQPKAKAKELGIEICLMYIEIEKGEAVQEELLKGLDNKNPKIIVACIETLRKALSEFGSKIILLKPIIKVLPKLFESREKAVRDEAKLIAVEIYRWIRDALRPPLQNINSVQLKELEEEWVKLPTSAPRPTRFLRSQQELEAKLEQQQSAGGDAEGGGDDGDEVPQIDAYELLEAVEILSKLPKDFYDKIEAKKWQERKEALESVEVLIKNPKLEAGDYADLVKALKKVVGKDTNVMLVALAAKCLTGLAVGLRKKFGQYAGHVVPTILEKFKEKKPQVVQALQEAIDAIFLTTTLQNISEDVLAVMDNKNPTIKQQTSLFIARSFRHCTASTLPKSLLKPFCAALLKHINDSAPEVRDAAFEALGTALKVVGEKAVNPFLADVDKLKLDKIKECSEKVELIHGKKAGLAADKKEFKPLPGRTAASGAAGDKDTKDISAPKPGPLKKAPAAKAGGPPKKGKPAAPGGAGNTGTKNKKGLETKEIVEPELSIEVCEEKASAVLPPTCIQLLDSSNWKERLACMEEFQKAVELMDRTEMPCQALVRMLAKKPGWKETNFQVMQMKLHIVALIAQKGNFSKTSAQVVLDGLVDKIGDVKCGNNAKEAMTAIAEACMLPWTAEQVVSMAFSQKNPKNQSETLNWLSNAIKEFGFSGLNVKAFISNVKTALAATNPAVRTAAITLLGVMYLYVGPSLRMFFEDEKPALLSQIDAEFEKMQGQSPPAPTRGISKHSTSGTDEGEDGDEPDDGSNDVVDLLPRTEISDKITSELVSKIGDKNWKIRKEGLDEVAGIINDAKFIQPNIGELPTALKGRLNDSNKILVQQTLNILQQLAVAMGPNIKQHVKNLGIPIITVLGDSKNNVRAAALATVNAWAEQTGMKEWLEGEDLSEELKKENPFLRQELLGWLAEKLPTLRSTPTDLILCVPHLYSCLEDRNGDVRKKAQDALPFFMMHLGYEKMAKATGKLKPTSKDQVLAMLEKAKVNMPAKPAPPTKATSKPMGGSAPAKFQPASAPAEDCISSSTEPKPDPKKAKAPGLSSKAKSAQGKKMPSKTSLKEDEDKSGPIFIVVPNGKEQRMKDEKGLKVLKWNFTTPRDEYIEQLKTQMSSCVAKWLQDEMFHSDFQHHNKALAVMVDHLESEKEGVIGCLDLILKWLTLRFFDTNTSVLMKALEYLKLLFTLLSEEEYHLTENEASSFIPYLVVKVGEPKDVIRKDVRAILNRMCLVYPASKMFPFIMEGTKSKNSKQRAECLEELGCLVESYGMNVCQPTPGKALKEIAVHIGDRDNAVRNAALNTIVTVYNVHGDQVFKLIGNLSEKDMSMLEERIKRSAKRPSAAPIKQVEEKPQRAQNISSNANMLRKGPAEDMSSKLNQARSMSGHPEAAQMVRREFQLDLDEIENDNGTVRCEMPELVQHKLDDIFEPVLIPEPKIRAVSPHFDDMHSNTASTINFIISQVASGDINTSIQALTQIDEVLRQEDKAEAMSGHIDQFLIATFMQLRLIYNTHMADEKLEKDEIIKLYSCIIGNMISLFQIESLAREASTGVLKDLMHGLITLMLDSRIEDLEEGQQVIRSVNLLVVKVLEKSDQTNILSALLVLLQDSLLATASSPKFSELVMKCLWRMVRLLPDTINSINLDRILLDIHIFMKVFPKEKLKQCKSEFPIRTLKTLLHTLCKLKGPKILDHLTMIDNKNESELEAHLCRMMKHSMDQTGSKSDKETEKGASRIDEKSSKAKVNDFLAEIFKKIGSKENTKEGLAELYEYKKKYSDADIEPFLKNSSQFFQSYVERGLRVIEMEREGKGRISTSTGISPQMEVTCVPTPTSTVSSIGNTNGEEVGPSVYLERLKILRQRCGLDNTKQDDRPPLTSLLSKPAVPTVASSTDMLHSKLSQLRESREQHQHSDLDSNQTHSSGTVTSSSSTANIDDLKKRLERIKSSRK
UniProt Q16643: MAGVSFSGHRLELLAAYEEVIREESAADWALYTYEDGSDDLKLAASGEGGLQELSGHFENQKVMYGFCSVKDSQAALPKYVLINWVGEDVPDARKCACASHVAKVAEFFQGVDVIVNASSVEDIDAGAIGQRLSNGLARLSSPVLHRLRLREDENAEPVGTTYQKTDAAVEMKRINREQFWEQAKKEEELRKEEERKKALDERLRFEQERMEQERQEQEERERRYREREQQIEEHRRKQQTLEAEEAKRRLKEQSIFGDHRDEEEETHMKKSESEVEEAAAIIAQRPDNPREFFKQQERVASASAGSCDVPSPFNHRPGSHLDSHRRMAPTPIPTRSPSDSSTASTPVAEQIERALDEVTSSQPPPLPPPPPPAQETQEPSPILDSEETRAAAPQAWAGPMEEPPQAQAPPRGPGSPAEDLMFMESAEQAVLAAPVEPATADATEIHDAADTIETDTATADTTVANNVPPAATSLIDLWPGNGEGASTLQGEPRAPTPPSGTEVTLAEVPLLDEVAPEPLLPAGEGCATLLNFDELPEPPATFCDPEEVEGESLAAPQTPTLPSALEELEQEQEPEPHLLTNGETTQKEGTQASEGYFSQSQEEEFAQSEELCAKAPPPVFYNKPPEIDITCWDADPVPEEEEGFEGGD
UniProt Q13418: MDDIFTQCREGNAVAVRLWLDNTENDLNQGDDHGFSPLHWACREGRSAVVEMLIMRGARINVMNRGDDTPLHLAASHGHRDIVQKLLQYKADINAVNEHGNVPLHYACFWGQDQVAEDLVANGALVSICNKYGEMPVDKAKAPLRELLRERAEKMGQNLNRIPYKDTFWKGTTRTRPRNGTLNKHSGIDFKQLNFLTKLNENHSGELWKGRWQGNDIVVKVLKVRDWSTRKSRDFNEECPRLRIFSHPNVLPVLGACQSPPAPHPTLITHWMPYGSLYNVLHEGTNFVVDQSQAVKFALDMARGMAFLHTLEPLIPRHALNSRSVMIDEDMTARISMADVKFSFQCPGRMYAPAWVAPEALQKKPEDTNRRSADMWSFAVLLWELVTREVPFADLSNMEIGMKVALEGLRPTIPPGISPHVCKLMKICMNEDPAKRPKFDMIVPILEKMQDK
UniProt O43707: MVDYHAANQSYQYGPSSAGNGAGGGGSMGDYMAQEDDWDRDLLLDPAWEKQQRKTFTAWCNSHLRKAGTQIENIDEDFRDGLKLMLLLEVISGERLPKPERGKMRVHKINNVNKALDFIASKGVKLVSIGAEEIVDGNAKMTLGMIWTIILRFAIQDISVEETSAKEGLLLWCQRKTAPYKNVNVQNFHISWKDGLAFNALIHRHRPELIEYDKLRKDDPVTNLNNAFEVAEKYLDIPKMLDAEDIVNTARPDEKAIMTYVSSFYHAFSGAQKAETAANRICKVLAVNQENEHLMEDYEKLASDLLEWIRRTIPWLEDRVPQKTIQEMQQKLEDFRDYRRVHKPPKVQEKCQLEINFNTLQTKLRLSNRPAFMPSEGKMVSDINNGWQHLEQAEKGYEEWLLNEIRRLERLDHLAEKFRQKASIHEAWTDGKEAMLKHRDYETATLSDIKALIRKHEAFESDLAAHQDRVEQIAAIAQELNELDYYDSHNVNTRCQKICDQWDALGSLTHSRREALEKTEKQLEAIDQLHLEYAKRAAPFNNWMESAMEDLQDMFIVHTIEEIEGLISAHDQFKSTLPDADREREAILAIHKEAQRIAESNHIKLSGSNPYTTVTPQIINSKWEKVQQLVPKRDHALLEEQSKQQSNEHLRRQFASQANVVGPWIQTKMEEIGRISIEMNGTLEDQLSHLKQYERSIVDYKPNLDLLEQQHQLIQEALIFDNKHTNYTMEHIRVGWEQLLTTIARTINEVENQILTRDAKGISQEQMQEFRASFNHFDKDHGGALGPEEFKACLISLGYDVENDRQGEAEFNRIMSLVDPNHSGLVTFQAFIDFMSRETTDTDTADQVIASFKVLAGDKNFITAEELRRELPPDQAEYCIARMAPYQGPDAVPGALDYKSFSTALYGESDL

T1: septin-9 (human (endogenous in TM cells)) (UniProt Q9UHD8)
T1 sequence: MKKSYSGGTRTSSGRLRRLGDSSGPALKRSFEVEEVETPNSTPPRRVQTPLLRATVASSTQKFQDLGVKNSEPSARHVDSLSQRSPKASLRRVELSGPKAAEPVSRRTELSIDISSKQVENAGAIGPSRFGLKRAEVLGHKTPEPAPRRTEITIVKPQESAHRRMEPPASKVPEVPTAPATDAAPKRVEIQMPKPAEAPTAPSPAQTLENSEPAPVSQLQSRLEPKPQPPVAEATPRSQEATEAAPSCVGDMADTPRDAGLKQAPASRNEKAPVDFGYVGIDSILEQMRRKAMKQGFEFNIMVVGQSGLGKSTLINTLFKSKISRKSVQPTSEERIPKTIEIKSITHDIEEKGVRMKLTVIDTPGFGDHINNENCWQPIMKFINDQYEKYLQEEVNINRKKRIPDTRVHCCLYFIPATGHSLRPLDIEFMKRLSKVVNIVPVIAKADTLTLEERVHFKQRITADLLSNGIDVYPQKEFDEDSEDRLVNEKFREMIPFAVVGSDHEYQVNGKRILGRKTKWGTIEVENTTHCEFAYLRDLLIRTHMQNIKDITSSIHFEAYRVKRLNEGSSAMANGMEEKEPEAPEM

B1: palladin (protein, UniProt Q8WX93 1-1383)
chain: MSGTSSHESFYDSLSDMQEESKNTDFFPGLSAFLSQEEINKSLDLARRAIADSETEDFDSEKEISQIFSTSPASLCEHPSHKETKLGEHASRRPQDNRSTPVQPLAEKQTKSISSPVSKRKPAMSPLLTRPSYIRSLRKAEKRGAKTPSTNVKPKTPHQRKGGPQSQLCDKAANLIEELTSIFKAAKPRNRSPNGESSSPDSGYLSPKNQPSALLSASASQSPMEDQGEMEREVKSPGARHCYQDNQDLAVPHNRKSHPQPHSALHFPAAPRFIQKLRSQEVAEGSRVYLECRVTGNPTPRVRWFCEGKELHNTPDIQIHCEGGDLHTLIIAEAFEDDTGRYTCLATNPSGSDTTSAEVFIEGASSTDSDSESLAFKSRAGAMPQAQKKTTSVSLTIGSSSPKTGVTTAVIQPLSVPVQQVHSPTSYLCRPDGTTTAYFPPVFTKELQNTAVAEGQVVVLECRVRGAPPLQVQWFRQGSEIQDSPDFRILQKKPRSTAEPEEICTLVIAETFPEDAGIFTCSARNDYGSATSTAQLVVTSANTENCSYESMGESNNDHFQHFPPPPPILETSSLELASKKPSEIQQVNNPELGLSRAALQMQFNAAERETNGVHPSRGVNGLINGKANSNKSLPTPAVLLSPTKEPPPLLAKPKLDPLKLQQLQNQIRLEQEAGARQPPPAPRSAPPSPPFPPPPAFPELAACTPPASPEPMSALASRSAPAMQSSGSFNYARPKQFIAAQNLGPASGHGTPASSPSSSSLPSPMSPTPRQFGRAPVPPFAQPFGAEPEAPWGSSSPSPPPPPPPVFSPTAAFPVPDVFPLPPPPPPLPSPGQASHCSSPATRFGHSQTPAAFLSALLPSQPPPAAVNALGLPKGVTPAGFPKKASRTARIASDEEIQGTKDAVIQDLERKLRFKEDLLNNGQPRLTYEERMARRLLGADSATVFNIQEPEEETANQEYKVSSCEQRLISEIEYRLERSPVDESGDEVQYGDVPVENGMAPFFEMKLKHYKIFEGMPVTFTCRVAGNPKPKIYWFKDGKQISPKSDHYTIQRDLDGTCSLHTTASTLDDDGNYTIMAANPQGRISCTGRLMVQAVNQRGRSPRSPSGHPHVRRPRSRSRDSGDENEPIQERFFRPHFLQAPGDLTVQEGKLCRMDCKVSGLPTPDLSWQLDGKPVRPDSAHKMLVRENGVHSLIIEPVTSRDAGIYTCIATNRAGQNSFSLELVVAAKEAHKPPVFIEKLQNTGVADGYPVRLECRVLGVPPPQIFWKKENESLTHSTDRVSMHQDNHGYICLLIQGATKEDAGWYTVSAKNEAGIVSCTARLDVYTQWHQQSQSTKPKKVRPSASRYAALSDQGLDIKAAFQPEANPSHLTLNTALVESEDL
B2: catenin δ-1 (protein, UniProt O60716 1-968)
chain: MDDSEVESTASILASVKEQEAQFEKLTRALEEERRHVSAQLERVRVSPQDANPLMANGTLTRRHQNGRFVGDADLERQKFSDLKLNGPQDHSHLLYSTIPRMQEPGQIVETYTEEDPEGAMSVVSVETSDDGTTRRTETTVKKVVKTVTTRTVQPVAMGPDGLPVDASSVSNNYIQTLGRDFRKNGNGGPGPYVGQAGTATLPRNFHYPPDGYSRHYEDGYPGGSDNYGSLSRVTRIEERYRPSMEGYRAPSRQDVYGPQPQVRVGGSSVDLHRFHPEPYGLEDDQRSMGYDDLDYGMMSDYGTARRTGTPSDPRRRLRSYEDMIGEEVPSDQYYWAPLAQHERGSLASLDSLRKGGPPPPNWRQPELPEVIAMLGFRLDAVKSNAAAYLQHLCYRNDKVKTDVRKLKGIPVLVGLLDHPKKEVHLGACGALKNISFGRDQDNKIAIKNCDGVPALVRLLRKARDMDLTEVITGTLWNLSSHDSIKMEIVDHALHALTDEVIIPHSGWEREPNEDCKPRHIEWESVLTNTAGCLRNVSSERSEARRKLRECDGLVDALIFIVQAEIGQKDSDSKLVENCVCLLRNLSYQVHREIPQAERYQEAAPNVANNTGPHAASCFGAKKGKDEWFSRGKKPIEDPANDTVDFPKRTSPARGYELLFQPEVVRIYISLLKESKTPAILEASAGAIQNLCAGRWTYGRYIRSALRQEKALSAIADLLTNEHERVVKAASGALRNLAVDARNKELIGKHAIPNLVKNLPGGQQNSSWNFSEDTVISILNTINEVIAENLEAAKKLRETQGIEKLVLINKSGNRSEKEVRAAALVLQTIWGYKELRKPLEKEGWKKSDFQVNLNNASRSQSSHSYDDSTLPLIDRNQKSDKKPDREEIQMSNMGSNTKSLDNNYSTPNERGDHNRTLDRSGDLGDMEPLKGTTPLMQDEGQESLEEELDVLVLDDEGGQVSYPSMQKI
B3: SEPT10 (protein, UniProt Q9P0V9 1-454)
chain: MASSEVARHLLFQSHMATKTTCMSSQGSDDEQIKRENIRSLTMSGHVGFESLPDQLVNRSIQQGFCFNILCVGETGIGKSTLIDTLFNTNFEDYESSHFCPNVKLKAQTYELQESNVQLKLTIVNTVGFGDQINKEESYQPIVDYIDAQFEAYLQEELKIKRSLFTYHDSRIHVCLYFISPTGHSLKTLDLLTMKNLDSKVNIIPVIAKADTVSKTELQKFKIKLMSELVSNGVQIYQFPTDDDTIAKVNAAMNGQLPFAVVGSMDEVKVGNKMVKARQYPWGVVQVENENHCDFVKLREMLICTNMEDLREQTHTRHYELYRRCKLEEMGFTDVGPENKPVSVQETYEAKRHEFHGERQRKEEEMKQMFVQRVKEKEAILKEAERELQAKFEHLKRLHQEERMKLEEKRRLLEEEIIAFSKKKATSEIFHSQSFLATGSNLRKDKDRKNSNFL
B4: CD59 (protein, UniProt P13987 26-102)
chain: LQCYNCPNPTADCKTAVNCSSDFDACLITKAGLQVYNKCWKFEHCNFNDVTTRLRENELTYYCCKKDLCNFNEQLEN
B5: SEPT11 (protein, UniProt Q9NVA2 1-429)
chain: MAVAVGRPSNEELRNLSLSGHVGFDSLPDQLVNKSTSQGFCFNILCVGETGIGKSTLMDTLFNTKFESDPATHNEPGVRLKARSYELQESNVRLKLTIVDTVGFGDQINKDDSYKPIVEYIDAQFEAYLQEELKIKRSLFNYHDTRIHACLYFIAPTGHSLKSLDLVTMKKLDSKVNIIPIIAKADTIAKNELHKFKSKIMSELVSNGVQIYQFPTDEETVAEINATMSVHLPFAVVGSTEEVKIGNKMAKARQYPWGVVQVENENHCDFVKLREMLIRVNMEDLREQTHTRHYELYRRCKLEEMGFKDTDPDSKPFSLQETYEAKRNEFLGELQKKEEEMRQMFVMRVKEKEAELKEAEKELHEKFDLLKRTHQEEKKKVEDKKKELEEEVNNFQKKKAAAQLLQSQAQQSGAQQTKKDKDKKNASFT
B6: phostensin (protein, UniProt Q6NYC8 1-613)
chain: MATIPDWKLQLLARRRQEEASVRGREKAERERLSQMPAWKRGLLERRRAKLGLSPGEPSPVLGTVEAGPPDPDESAVLLEAIGPVHQNRFIRQERQQQQQQQQRSEELLAERKPGPLEARERRPSPGEMRDQSPKGRESREERLSPRETRERRLGIGGAQELSLRPLEARDWRQSPGEVGDRSSRLSEAWKWRLSPGETPERSLRLAESREQSPRRKEVESRLSPGESAYQKLGLTEAHKWRPDSRESQEQSLVQLEATEWRLRSGEERQDYSEECGRKEEWPVPGVAPKETAELSETLTREAQGNSSAGVEAAEQRPVEDGERGMKPTEGWKWTLNSGKAREWTPRDIEAQTQKPEPPESAEKLLESPGVEAGEGEAEKEEAGAQGRPLRALQNCCSVPSPLPPEDAGTGGLRQQEEEAVELQPPPPAPLSPPPPAPTAPQPPGDPLMSRLFYGVKAGPGVGAPRRSGHTFTVNPRRSVPPATPATPTSPATVDAAVPGAGKKRYPTAEEILVLGGYLRLSRSCLAKGSPERHHKQLKISFSETALETTYQYPSESSVLEELGPEPEVPSAPNPPAAQPDDEEDEEELLLLQPELQGGLRTKALIVDESCRR

Each molecule was assayed against T1, septin-9 (human (endogenous in TM cells)) (assay: affinity purification with mass spectrometry; immunoprecipitation with an anti-SEPT9 polyclonal antibody on Dynabeads Protein A from human TM cell lysates (2 strains), IgG control; tryptic digests read by LC-MS (Q Exactive HF Orbitrap)).
“CCN family member 2 (from UniProt P29279 27-349)” was tested, and the binding was “binds”. With EMILIN-1 (from UniProt Q9Y6C2 22-1016) the binding was “binds”. For FERM2 (from UniProt Q96AC1 1-680), the binding was “binds”. “LIM domain and actin-binding protein 1 (from UniProt Q9UHB6 1-759)” was tested, and the binding was “binds”. With “cytoplasmic FMR1-interacting protein (human (endogenous in TM cells))” the binding was “binds”. With “cytoskeleton-associated protein 5 (from UniProt Q14008 1-2032)” the binding was “binds”. In the case of drebrin (from UniProt Q16643 1-649), the binding is reported as “binds”. With “integrin-linked protein kinase (from UniProt Q13418 1-452)” the binding was “binds”. In the case of “inverted formin-2 (from UniProt Q27J81 1-1249)”, the binding is reported as “binds”. In the case of “latent TGF-β-binding protein 2 (from UniProt Q14767 36-1821)”, the binding is reported as “binds”. For “microtubule-actin cross-linking factor 1 (from UniProt Q9UPN3 1-7388)”, the binding was “binds”. With myosin-10 (from UniProt P35580 1-1976) the binding was “binds”. In the case of “synaptojanin-1 (from UniProt O43426 1-1573)”, the binding is reported as “binds”. With α-actinin 4 (from UniProt O43707 1-911) the binding was “binds”. With B1 the binding was “binds”. B2 was tested, and the binding was “binds”. For B3, the binding was “binds”. For B4, the binding was “binds”. For B5, the binding was “binds”. For B6, the binding was “binds”.
